Results taken from US5646136A, “Methods of inhibiting angiogenesis and tumor growth, and treating ophthalmologic conditions with angiostatic and therapeutic steroids” (Duke University, priority 1994, dated 1997).

Tested on: corneal neovascularization
Test: Inhibition of corneal neovascularization in cauterized rat corneas, topical application four times per day for four days
Type: in vivo
Settings: Experiment B; topical 0.1%; versus vehicle
Description: The ability of etianic acids to inhibit angiogenesis was evaluated in vivo in rats. Each animal had its corneas cauterized with silver nitrate/potassium nitrate. The cauterization causes the normally avascular cornea to undergo neovascularization (anglogenesis). This animal model, refined by Proia et al., Lab. Invest. 58: 473-479 (1988) and now a well-established assay, quantifies corneal neovascularization by computerized image analysis. […] Ophthalmol. Vis. Science 30: 1588-1593 (1989), and can provide a more definitive evaluation of angiostatic activity than models using the chorioallantoic membrane in the chick egg or the rabbit eye model. See Proia et al., Exp. Eye Res. (in press--to be published in Vol. 57 in 1993).
Female rats were obtained from Zivic-Miller Laboratories, Zelienople, Pa. […]
Steroids were formulated in vehicle containing 10 percent Tween 20 (polyoxyethylene sorbitan monolaurate) dissolved in 0.9 percent saline with percent (by volume) 0.2M tris (hydroxymethyl)aminomethane, pH 7.4. The steroids dissolved readily when the pH was adjusted to 7.0-8.0 with NaOH or KOH. […]
After four days of treatment, the animals were euthanized by rapid asphyxiation in a carbon dioxide chamber. […] After dehydration with alcohols, cleaning with xylene, mounting, and drying, the area of each cornea and the length of blood vessels were determined by computerized image analysis. […]

SMILES: C[C@@H]1C[C@H]2[C@@H]3CCC4=CC(=O)C=C[C@]4(C)[C@@]3(F)[C@@H](O)C[C@]2(C)[C@@]1(O)C(=O)COP(=O)(O)O [dexamethasone sodium phosphate, reference compound]
- Percent Inhibition of neovascularization: 67%
